Sequences of proteins named here, by UniProt entry; tags and fusion partners are left off.
UniProt P55072, whole entry: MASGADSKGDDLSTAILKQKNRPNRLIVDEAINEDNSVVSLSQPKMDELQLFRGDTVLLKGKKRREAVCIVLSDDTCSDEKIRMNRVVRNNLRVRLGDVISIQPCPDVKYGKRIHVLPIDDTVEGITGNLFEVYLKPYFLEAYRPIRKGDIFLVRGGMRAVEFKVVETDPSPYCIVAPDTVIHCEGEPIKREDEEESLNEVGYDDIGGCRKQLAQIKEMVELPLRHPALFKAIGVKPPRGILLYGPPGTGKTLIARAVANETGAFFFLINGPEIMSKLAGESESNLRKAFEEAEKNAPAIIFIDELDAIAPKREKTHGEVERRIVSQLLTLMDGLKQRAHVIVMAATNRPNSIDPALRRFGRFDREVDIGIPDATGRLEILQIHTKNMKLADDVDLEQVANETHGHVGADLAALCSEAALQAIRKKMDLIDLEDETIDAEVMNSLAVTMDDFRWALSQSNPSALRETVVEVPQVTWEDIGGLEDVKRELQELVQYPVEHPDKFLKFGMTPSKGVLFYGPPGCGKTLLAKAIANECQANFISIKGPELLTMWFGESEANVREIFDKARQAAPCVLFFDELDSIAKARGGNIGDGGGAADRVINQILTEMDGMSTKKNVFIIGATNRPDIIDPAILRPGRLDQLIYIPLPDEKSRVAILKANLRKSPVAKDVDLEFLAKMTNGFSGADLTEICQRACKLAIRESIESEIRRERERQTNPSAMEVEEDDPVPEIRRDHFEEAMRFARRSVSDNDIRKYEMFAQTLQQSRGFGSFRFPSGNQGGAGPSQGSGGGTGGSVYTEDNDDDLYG

According to patent US9062026B2, “Fused pyrimidines and substituted quinazolines as inhibitors of p97” (Cleave Biosciences, Inc., priority 2012, dated 2015):

Target: p97 (Homo sapiens (Human), UniProt P55072)
Experiment: P97 ATPase biochem assay (ADP Glo)
Settings: read-out: p97 IC50

IC50: < 300 nM
Structure (SMILES): COCCOc1cccc2c(NCc3ccccc3)nc(-n3c(CNC(C)=O)cc4ccccc43)nc12

The structures given here were assigned with low confidence; some may be wrong.
